Data from article doi:10.1101/2025.10.11.681827.

Molecular target: PUM2-HisLinker-Venus (Arabidopsis thaliana)
Assay: affinity purification with mass spectrometry

- binding: no binding
B1: EVOLUTIONARILY CONSERVED C-TERMINAL REGION2 (ECT2) (protein, UniProt Q9LJE5 1-667)
chain: MATVAPPADQATDLLQKLSLDSPAKASEIPEPNKKTAVYQYGGVDVHGQVPSYDRSLTPMLPSDAADPSVCYVPNPYNPYQYYNVYGSGQEWTDYPAYTNPEGVDMNSGIYGENGTVVYPQGYGYAAYPYSPATSPAPQLGGEGQLYGAQQYQYPNYFPNSGPYASSVATPTQPDLSANKPAGVKTLPADSNNVASAAGITKGSNGSAPVKPTNQATLNTSSNLYGMGAPGGGLAAGYQDPRYAYEGYYAPVPWHDGSKYSDVQRPVSGSGVASSYSKSSTVPSSRNQNYRSNSHYTSVHQPSSVTGYGTAQGYYNRMYQNKLYGQYGSTGRSALGYGSSGYDSRTNGRGWAATDNKYRSWGRGNSYYYGNENNVDGLNELNRGPRAKGTKNQKGNLDDSLEVKEQTGESNVTEVGEADNTCVVPDREQYNKEDFPVDYANAMFFIIKSYSEDDVHKSIKYNVWASTPNGNKKLAAAYQEAQQKAGGCPIFLFFSVNASGQFVGLAEMTGPVDFNTNVEYWQQDKWTGSFPLKWHIVKDVPNSLLKHITLENNENKPVTNSRDTQEVKLEQGLKIVKIFKEHSSKTCILDDFSFYEVRQKTILEKKAKQTQKQVSEEKVTDEKKESATAESASKESPAAVQTSSDVKVAENGSVAKPVTGDVVANGC

These are yes or no findings as the source states them, for the method shown. Binding seen in cells or lysates may run through a third protein. A yes stands for co-enrichment or nearness to the bait. Other partners may have been found. A no says only that the protein was not detected with the bait.
